Structures are written as SMILES. ± gives the standard deviation of the averaged measurements. The list shows a part of the results.

Experimental findings from the supplement of paper PMC6411743 are described below.

The assay has as its target T1, UniProt Q7LGA3 and related entries.
T1 sequence (whole entry): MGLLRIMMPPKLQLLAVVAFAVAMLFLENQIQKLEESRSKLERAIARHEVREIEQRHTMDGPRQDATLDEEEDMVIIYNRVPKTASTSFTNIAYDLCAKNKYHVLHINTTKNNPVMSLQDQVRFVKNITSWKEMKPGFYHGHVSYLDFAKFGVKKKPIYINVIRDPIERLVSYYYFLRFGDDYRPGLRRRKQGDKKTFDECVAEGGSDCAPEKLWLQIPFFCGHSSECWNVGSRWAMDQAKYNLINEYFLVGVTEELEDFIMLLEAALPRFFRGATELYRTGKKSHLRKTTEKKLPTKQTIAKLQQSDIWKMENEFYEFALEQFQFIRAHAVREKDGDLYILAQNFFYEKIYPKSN
The assay can be described thus: NP40-soluble protein abundance relative to vehicle (solubility fold change) (ratio); higher = more soluble protein in presence of GTP. The protocol:
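Solubility proteome profiling in Jurkat crude lysate. Lysate was treated with Mg-GTP (0.1-10 mM) for 10 min at room temperature and 3 min at 37 °C, then solubilised with 0.8% NP40 and benzonase, followed by ultracentrifugation. Proteins were quantified by TMT10 LC-MS/MS; the value is the NP40-soluble abundance relative to the NP40-processed vehicle, from 3 independent experiments.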

Take `Nc1nc2c(ncn2[C@@H]2O[C@H](COP(=O)(O)OP(=O)(O)OP(=O)(O)O)[C@@H](O)[C@H]2O)c(=O)[nH]1` [guanosine triphosphate]: the NP40-soluble protein abundance reads like this: (concentration: 0.1mM) 1.16 ± 0.03; (concentration: 0.5mM) 1.16 ± 0.092; (concentration: 1mM) 1.24 ± 0.11; (concentration: 2mM) 1.23 ± 0.13; (concentration: 4mM) 1.39 ± 0.052; (concentration: 6mM) 1.34 ± 0.2. Besides, the NP40-soluble protein abundance reads like this: (concentration: 8mM) 1.38 ± 0.22; (concentration: 10mM) 1.42 ± 0.21.
